For at least one compound, name, drawing or mass did not settle the structure.
Legend:
[1] = system: hPSCs (hESC and hiPSC lines); test: Intermediate mesoderm differentiation: PAX2/LHX1 immunostaining; type: cell-based, human
Experimental: Mesendoderm differentiation—the media is changed to Advanced RPMI (A-RPMI, Invitrogen) supplemented with 1×L-glutamax and 1× penicillin/streptomycin and either CHIR99021 (CHIR, Stemgent), human Wnt3a (R&D systems), and/or human activin A (R&D systems) at the doses described. Definitive endoderm differentiation—cells are treated with A-RPMI+1×L-glu+1×P/S+5 μM CHIR for 24 hours, then A-RPMI+1×Lglu+1×P/S+100 ng/mL of activin A for 2-3 days. Hepatic differentiation—cells at the definitive endoderm stage are treated with A-RPMI+1×L-glu+1×P/S+1×B27 supplement (Invitrogen)+20 ng/mL BMP-4 (R&D systems)+10 ng/mL FGF2 (Invitrogen) for 5 days, then A-RPMI+1×L-glu+1×P/S+1×B27+10 ng/mL HGF for 5 days, then HCM Hepatocyte Culture Medium (Lonza) supplemented with 20 ng/mL Oncostatin M and 10 ng/mL HGF (Peprotech) for 5 days. […]
(§1) Nuclei can be counterstained with DAPI (Sigma). […] Immunofluorescence is visualized using an inverted fluorescence microscope (Nikon Eclipse Ti, Tokyo, Japan). Quantification is performed by counting a minimum of five random fields at 10× magnification. […]

[2] = system: CHIR-induced hPSCs; test: Growth factor screen for PAX2 induction in CHIR-induced mesendodermal cells (immunostaining); type: cell-based, human; details: CHIR 24 hours then low doses of factor, day 4
Experimental: For immunofluorescence studies, cultures are washed once with PBS (Invitrogen) and fixed in 4% paraformaldehyde for 15 min at room temperature (RT). Fixed cells are then washed three times in PBS and incubated in blocking buffer (0.3% Triton X-100 (Fisher Scientific) and 5% normal donkey serum (EMD Millipore) in PBS) for 1 hour at RT.
The cells are then incubated with primary antibody overnight at 4° C. or for 2 hours at RT in antibody dilution buffer (0.3% Triton X-100 and 1% BSA (Roche) in PBS). Cells are then washed three times in PBS and incubated with Alexa Fluor 488-, 555-, or 647-conjugated secondary antibodies (1:500) (Molecular Probes) in antibody dilution buffer for 1 hour at RT. For immunostaining with Biotinylated Lotus Tetragonolobus Lectin (LTL, Vector Labs), a Streptavidin/Biotin Blocking Kit (Vector Labs) and Alexa Fluor 488- or 647-conjugated Streptavidin (Molecular Probes) were used according to manufacturer's instructions.
as §1

Question: What does the source list for `CC1=C(/C=C/C(C)=C/C=C/C(C)=C/C(=O)O)C(C)(C)CCC1` [RA, retinoic acid]?
Answer: LHX1 expression ([1]; 1 μM RA added to FGF2 after CHIR 24 hours, day 4): marked increase; PAX2 expression ([1]; low dose RA in combination with FGF2 after CHIR, vs FGF2): does not result in a dramatic increase; PAX2 expression compared to vehicle control [2]: modest increases

— US20160272937A1, “METHODS OF GENERATING INTERMEDIATE MESODERM CELLS FROM HUMAN PLURIPOTENT STEM CELLS” (THE BRIGHAM AND WOMEN'S HOSPITAL, INC., priority 2013, published 2016)
